Results are given in words; binding and its absence hold for the method and conditions named. Binding can be weak; no strength is given. Sequences can lack the tags named with a protein.

The target of this assay is T1, Kir6.2 with C-terminal GFP tag from Mus musculus (Mus musculus) (UniProt Q61743).
T1 sequence: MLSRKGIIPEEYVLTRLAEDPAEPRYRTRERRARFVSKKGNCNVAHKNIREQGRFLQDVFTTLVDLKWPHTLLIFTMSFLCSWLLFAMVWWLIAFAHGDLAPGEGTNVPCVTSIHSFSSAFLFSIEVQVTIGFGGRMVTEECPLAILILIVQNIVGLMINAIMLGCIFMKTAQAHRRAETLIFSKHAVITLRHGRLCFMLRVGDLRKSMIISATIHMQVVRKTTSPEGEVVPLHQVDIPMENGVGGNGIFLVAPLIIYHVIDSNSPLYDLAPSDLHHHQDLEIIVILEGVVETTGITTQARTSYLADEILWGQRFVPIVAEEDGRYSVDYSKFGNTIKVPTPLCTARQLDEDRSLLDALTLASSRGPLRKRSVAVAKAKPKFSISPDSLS
Nature of the assay: SEC. (In general: Size exclusion chromatography separates by hydrodynamic size, large species first.)

With “SUR1 of Mesocricetus auratus (from UniProt A0A1U7R319)”, the binding result is on record as “binds”.

The values above are taken from paper doi:10.1101/2021.10.18.464913.
